Our source for the isolated mass and isolated yield values is patent US20080096807A1 (priority 2006, published 2008).

A short description of the data set: general procedure: Fmoc solid-phase peptide synthesis; Fmoc-Rink Linker-BHA resin; HBTU and DIC with HOBT (preferred); BOP/NMM for cyclisation. The note with it: whole synthesis, scale 0.25 mmol.

Square brackets hold non-standard residues; d marks the D form. NMeV = CN[C@H](C(=O)O)C(C)C; Nle = CCCC[C@H](N)C(=O)O

The substance “Ac-HSDA[NMeV]FTENYTKLRKR[Nle]AAKKYLNDLKKGGT-NH2” showed an isolated mass of 13.8 mg and an isolated yield of 1.2%.
“Ac-His-Ser-Asp-Ala-MeVal-Phe-Thr-Glu-Asn-Tyr-thr-Lys-Leu-Arg-Lys-Gln-Nle-Ala-Ala-Lys-Lys-Tyr-Leu-Asn-Asp-Leu-Leu-Lys-Gly-Gly-Thr-NH2” had an isolated mass of 55 mg and an isolated yield of 5.2%.
For “Ac-HADA[NMeV]FTENYTKLRKQ[Nle]AAKKYLNDLKKGGT-NH2”, in that order: 49 mg and 4.5%.
For “Ac-HADA[NMeV]FTENYTKLRKQ[Nle]AAKKYLNDLLKGGT-NH2”, in that order: 30.2 mg and 2.8%.
